# Results deposited as PubChem BioAssay AID1259405 (NCATS, 2018).
# Screen: 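Mouse-designed siRNAs used to find CHO productivity engineering targets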 (primary screen)
# System: Chinese hamster CHO-K1 ovary cells with stable secreted eGFP expression
# Reagent: single siRNA against mouse genes, 0.8 pmol siRNA per well (2 µl of 400 nM stock)
# Timing: 3 days
# Detection: 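Percent of the per-plate non-targeting control median for intracellular GFP per well by laser scanning cytometry and for cell viability by ATP luminescence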
# Reading the numbers: GFP, % of control: higher = more GFP per well, higher productivity; viability (ATP), % of control: higher = more viable cells (more ATP)
# Active means: 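a knock-down is called active if GFP reaches 120% or more of non-targeting control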
# Here is an unselected part of about 50,000 reagents. Over the whole deposit, about 4,000 (8%) got an active call. 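Mouse siRNA library applied to hamster cells; one well for each siRNA.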 The numbers tell different reagents against one gene apart. No sequences are given here.
Target gene,reagent,"GFP, % of control","viability (ATP), % of control",Outcome
Krt88 (keratin 88),1,37.7,16.3,inactive
Krt88 (keratin 88),2,91.3,92.3,inactive
Krt88 (keratin 88),3,74.6,57.3,inactive
"Khdc3 (KH domain containing 3, subcortical maternal complex member)",1,97.9,80.1,inactive
"Khdc3 (KH domain containing 3, subcortical maternal complex member)",2,77.7,101,inactive
"Khdc3 (KH domain containing 3, subcortical maternal complex member)",3,97.5,111,inactive
Sdc3 (syndecan 3),1,65.3,63.5,inactive
Sdc3 (syndecan 3),2,49.9,63.4,inactive
Sdc3 (syndecan 3),3,76.6,60.6,inactive
Or52e2 (olfactory receptor family 52 subfamily E member 2),1,48.8,27.5,inactive
Or52e2 (olfactory receptor family 52 subfamily E member 2),2,80.5,77.5,inactive
Or52e2 (olfactory receptor family 52 subfamily E member 2),3,61.5,90,inactive
Zfp160 (zinc finger protein 160),1,58.8,66.4,inactive
Zfp160 (zinc finger protein 160),2,118,101,inactive
Kdm5c (lysine demethylase 5C),1,80.4,103,inactive
Kdm5c (lysine demethylase 5C),2,92.1,74.8,inactive
Kdm5c (lysine demethylase 5C),3,114,76.1,inactive
Vasn (vasorin),1,53.1,63.6,inactive
Vasn (vasorin),2,75.3,85.4,inactive
Vasn (vasorin),3,155,75.6,active
"Adarb1 (adenosine deaminase, RNA-specific, B1)",1,46.5,63.2,inactive
"Adarb1 (adenosine deaminase, RNA-specific, B1)",2,83.7,101,inactive
"Adarb1 (adenosine deaminase, RNA-specific, B1)",3,61.3,45.3,inactive
Chit1 (chitinase 1),1,89.3,97.1,inactive
Chit1 (chitinase 1),2,73.5,77.4,inactive
Chit1 (chitinase 1),3,77.1,75.7,inactive
Dhrsx (dehydrogenase/reductase X linked),1,108,91.7,inactive
Dhrsx (dehydrogenase/reductase X linked),2,77.3,79.2,inactive
Dhrsx (dehydrogenase/reductase X linked),3,68,75.4,inactive
Zfp609 (zinc finger protein 609),1,65.7,29.7,inactive
Zfp609 (zinc finger protein 609),2,95.7,59.3,inactive
Zfp609 (zinc finger protein 609),3,69,80.8,inactive
Sema4g,1,133,109,active
Sema4g,2,74.7,86.9,inactive
Sema4g,3,76.7,89.3,inactive
Nkapl (NFKB activating protein-like),1,75.1,48.5,inactive
Nkapl (NFKB activating protein-like),2,86.3,58.3,inactive
Nkapl (NFKB activating protein-like),3,83.9,71,inactive
Tdh (L-threonine dehydrogenase),1,83.3,54.9,inactive
Tdh (L-threonine dehydrogenase),2,71.5,72.3,inactive
Tdh (L-threonine dehydrogenase),3,81.2,75.9,inactive
Sgo2a (shugoshin 2A),1,130,137,active
Sgo2a (shugoshin 2A),2,85.7,85.1,inactive
Sgo2a (shugoshin 2A),3,76.5,101,inactive
Dennd2c (DENN domain containing 2C),1,60.7,41.4,inactive
Dennd2c (DENN domain containing 2C),2,54.1,52.6,inactive
Dennd2c (DENN domain containing 2C),3,94.4,91.8,inactive
Or5b111 (olfactory receptor family 5 subfamily B member 111),1,61.7,68.1,inactive
Or5b111 (olfactory receptor family 5 subfamily B member 111),2,81,111,inactive
Or5b111 (olfactory receptor family 5 subfamily B member 111),3,78.2,96,inactive
2810021J22Rik (RIKEN cDNA 2810021J22 gene),1,74.3,75.5,inactive
2810021J22Rik (RIKEN cDNA 2810021J22 gene),2,72.3,43.8,inactive
2810021J22Rik (RIKEN cDNA 2810021J22 gene),3,82.7,70.3,inactive
Or4c113 (olfactory receptor family 4 subfamily C member 113),1,68.3,80.3,inactive
Or4c113 (olfactory receptor family 4 subfamily C member 113),2,58.9,49.6,inactive
Or4c113 (olfactory receptor family 4 subfamily C member 113),3,59.5,93.7,inactive
Tmem67 (transmembrane protein 67),1,94.3,90.7,inactive
Tmem67 (transmembrane protein 67),2,101,108,inactive
Tmem67 (transmembrane protein 67),3,167,155,active
Tvp23b (trans-golgi network vesicle protein 23B),1,88.4,70.8,inactive
Tvp23b (trans-golgi network vesicle protein 23B),2,37.6,42.9,inactive
Tvp23b (trans-golgi network vesicle protein 23B),3,79.5,80.1,inactive
"Chaf1a (chromatin assembly factor 1, subunit A)",1,75.3,52.8,inactive
"Chaf1a (chromatin assembly factor 1, subunit A)",2,65.7,78.6,inactive
"Chaf1a (chromatin assembly factor 1, subunit A)",3,68.1,46.4,inactive
"Cd3g (CD3 antigen, gamma polypeptide)",1,87.3,55,inactive
"Cd3g (CD3 antigen, gamma polypeptide)",2,68.6,83.4,inactive
"Cd3g (CD3 antigen, gamma polypeptide)",3,52.9,61.5,inactive
Dnai7 (dynein axonemal intermediate chain 7),1,99.7,95.4,inactive
Dnai7 (dynein axonemal intermediate chain 7),2,87.9,83.7,inactive
Dnai7 (dynein axonemal intermediate chain 7),3,65,103,inactive
Dars1 (aspartyl-tRNA synthetase 1),1,104,82.4,inactive
Dars1 (aspartyl-tRNA synthetase 1),2,64.5,65.9,inactive
Dars1 (aspartyl-tRNA synthetase 1),3,95,91.9,inactive
Prrt1 (proline-rich transmembrane protein 1),1,77.3,76.8,inactive
Prrt1 (proline-rich transmembrane protein 1),2,93.3,81.5,inactive
Prrt1 (proline-rich transmembrane protein 1),3,83,80.3,inactive
Mtf2 (metal response element binding transcription factor 2),1,84,89.7,inactive
Mtf2 (metal response element binding transcription factor 2),2,70.4,74.1,inactive
Mtf2 (metal response element binding transcription factor 2),3,111,102,inactive
Slc6a20a,1,88.3,79.1,inactive
Slc6a20a,2,93,83,inactive
Slc6a20a,3,92.7,75.4,inactive
Zfp775 (zinc finger protein 775),1,62.1,60.7,inactive
Zfp775 (zinc finger protein 775),2,72.7,45,inactive
Zfp775 (zinc finger protein 775),3,101,86,inactive

Hits, of those listed so far:
Target gene,reagent,"GFP, % of control","viability (ATP), % of control",Outcome
Vasn (vasorin),3,155,75.6,active
Sema4g,1,133,109,active
Sgo2a (shugoshin 2A),1,130,137,active
Tmem67 (transmembrane protein 67),3,167,155,active
